Results are given in words; binding and its absence hold for the method and conditions named. Some entries that bind do so weakly or less than the wild type.
Molecular target: catalytic subunit of human protein kinase CK2 (human) (UniProt P68400)
Experiment: pull-down; His-tagged CK2α immobilised on cobalt resin (Pierce His Protein Interaction Pull-Down Kit); peptide library [KGDE]-[DE]-[ST]-[DE]3-NH2 in TBS, overnight at 4 °C; eluted with 2 M glycine pH 2.5; peptides identified by LC-MS (ESI-MS) by mass, against the library itself and a column without CK2α; both purified

Sequences of proteins named here, by UniProt entry; tags and fusion partners are left off.
UniProt P68400: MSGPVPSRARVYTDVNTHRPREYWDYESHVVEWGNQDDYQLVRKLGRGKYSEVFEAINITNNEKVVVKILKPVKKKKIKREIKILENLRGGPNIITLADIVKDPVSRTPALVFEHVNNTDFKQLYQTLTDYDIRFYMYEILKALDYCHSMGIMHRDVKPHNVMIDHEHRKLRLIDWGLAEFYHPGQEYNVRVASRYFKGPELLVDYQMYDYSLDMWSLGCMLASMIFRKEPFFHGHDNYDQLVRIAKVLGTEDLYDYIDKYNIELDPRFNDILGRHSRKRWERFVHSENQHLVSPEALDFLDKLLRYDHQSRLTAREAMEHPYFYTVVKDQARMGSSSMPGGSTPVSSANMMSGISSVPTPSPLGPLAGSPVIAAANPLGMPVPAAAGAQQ

| binding | Binder |
| --- | --- |
| binds | EETEEE (C-terminal amide) [EETEEE-NH2] |
| binds | KETEEE (C-terminal amide) [KETEEE-NH2] |
